Test results taken from PubChem BioAssay AID330 (DTP/NCI, 2004).
The list is a part of this screen's results and no random one: it gathers tests that were run many times, whatever their T/C, doses with no T/C, and many T/C values between a quarter and a half above the control. Further doses and runs are listed elsewhere. T/C is the treated group as % of the vehicle group. Some doses have a count of surviving animals in place of a T/C: the source holds a T/C of zero for them, seemingly a mark for toxic or unscored doses. Some survivor counts are full or nearly so, which does not show that the dose was tolerated: the source hardly ever lists a survival T/C far under the control, and the zero likely stands for such cases as well. Counts of survivors are from the toxicity check (mostly the fifth day) where no day follows; animals may have died later. Schedules are NCI's codes, read here as Q, the interval in days (D) or hours (H), X, the number of doses. Some doses were run more than once; the values are given in rising order. Where survival is the endpoint, this PubChem deposit counts one and a half times the control or more as active, and values a quarter to a half above the control carry no call in these data; other NCI protocols may use other cut-offs. Counts like (3×) count equal records among those shown. Some T/C values are followed by the survivors on the day toxicity was checked, most often the fifth; without a count, all were alive then.

System: P388 leukemia ip, CD2F1 mice, survival T/C
Assay: NCI In Vivo Anticancer Drug Screen. Data for tumor model P388 Leukemia (intraperitoneal) in CD2F1 (CDF1) mice
Conditions: T/C endpoint: median survival time, higher T/C = longer survival
[1] = dose: 200.0 mg/kg/injection, schedule: Q01DX009 (ip), vehicle: saline
[2] = dose: 240.0 mg/kg/injection, schedule: Q01DX005 (ip), vehicle: Klucel (hydroxypropylcellulose) (HPC)
[3] = dose: 240.0 mg/kg/injection, schedule: Q01DX005 (ip), vehicle: saline with Tween-80
[4] = dose: 3.12 mg/kg/injection, schedule: Q01DX009 (ip), vehicle: saline
[5] = dose: 6.25 mg/kg/injection, schedule: Q01DX009 (ip), vehicle: saline
[6] = dose: 50.0 mg/kg/injection, schedule: Q01DX009 (ip), vehicle: saline
[7] = dose: 200.0 mg/kg/injection, schedule: Q01DX009 (ip), vehicle: Klucel (hydroxypropylcellulose) (HPC)

Compound: CC1C=NNC1=O (stereo not given)
- T/C (dose: 250.0 mg/kg/injection, schedule: Q01DX009 (ip), vehicle: saline with Tween-80): 126 % of control
- T/C (dose: 500.0 mg/kg/injection, schedule: Q01DX009 (ip), vehicle: saline with Tween-80): 140 % of control [5 of 6 alive]

Compound: NC(=O)c1ncn(C2OC(COP(=O)(O)O)C(O)C2O)n1 (stereo not given)
- survivor count (dose: 400.0 mg/kg/injection, schedule: Q01DX009 (ip), vehicle: saline): 2 of 6 and 6 of 6

Compound: CC1=C2C(O)C(=O)OC3CC4C(C)(C)C(=O)CCC4(C)C(CC1)C23C (stereo not given)
- survivor count (dose: 1.75 mg/kg/injection, schedule: Q01DX009 (ip), vehicle: Klucel (hydroxypropylcellulose) (HPC)): 6 of 6
- survivor count (dose: 3.5 mg/kg/injection, schedule: Q01DX009 (ip), vehicle: Klucel (hydroxypropylcellulose) (HPC)): 6 of 6
- survivor count (dose: 7.0 mg/kg/injection, schedule: Q01DX009 (ip), vehicle: Klucel (hydroxypropylcellulose) (HPC)): 6 of 6
- survivor count (dose: 14.0 mg/kg/injection, schedule: Q01DX009 (ip), vehicle: Klucel (hydroxypropylcellulose) (HPC)): 6 of 6
- survivor count (dose: 28.0 mg/kg/injection, schedule: Q01DX009 (ip), vehicle: Klucel (hydroxypropylcellulose) (HPC)): 6 of 6

Compound: N=C1CCCS1
- T/C (dose: 50.0 mg/kg/injection, schedule: Q01DX005 (ip), vehicle: saline): 125 % of control (2×)
- T/C (dose: 100.0 mg/kg/injection, schedule: Q01DX005 (ip), vehicle: saline): 147 % of control
- survivor count (dose: 200.0 mg/kg/injection, schedule: Q01DX005 (ip), vehicle: saline): 0 of 5 and 1 of 5

Compound: CN1CCc2cc3c(cc2C1O)OCO3 (stereo not given)
- survivor count (dose: 200.0 mg/kg/injection, schedule: Q01DX005 (ip), vehicle: saline with Tween-80): 2 of 6

Compound: CCN(CC)c1ccc([P+](=O)O)cc1
- survivor count [1]: 6 of 6

Compound: Cc1cc(NCCN(C(C)C)C(C)C)nc(/N=C(\N)Nc2ccc(Cl)c(C(F)(F)F)c2)n1
- T/C (dose: 20.0 mg/kg/injection, schedule: Q04DX003 (ip), vehicle: Klucel (hydroxypropylcellulose) (HPC)): 126 % of control
- T/C (dose: 40.0 mg/kg/injection, schedule: Q04DX003 (ip), vehicle: Klucel (hydroxypropylcellulose) (HPC)): 136 and 140 % of control

Compound: COc1cc(C2c3cc4c(cc3CC3COC(=O)N32)OCO4)cc(OC)c1OC (stereo not given)
- survivor count (dose: 60.0 mg/kg/injection, schedule: Q01DX005 (ip), vehicle: Klucel (hydroxypropylcellulose) (HPC)): 2 of 6
- survivor count (dose: 120.0 mg/kg/injection, schedule: Q01DX005 (ip), vehicle: Klucel (hydroxypropylcellulose) (HPC)): 1 of 6
- survivor count [2]: 0 of 6

Compound: COc1cc(C(c2cc3c(cc2O)OCO3)N2CCOCC2)cc(OC)c1OC (stereo not given)
- survivor count [3]: 3 of 6

Compound: C1CCC2[N-]CC3CCCCC3[N-]CC3CCCCC3[N-]CC3CCCCC3[N-]CC2C1.[Cu] (stereo not given)
- T/C (dose: 0.78 mg/kg/injection, schedule: Q01DX009 (ip), vehicle: Klucel (hydroxypropylcellulose) (HPC)): 132 % of control
- T/C (dose: 1.56 mg/kg/injection, schedule: Q01DX009 (ip), vehicle: Klucel (hydroxypropylcellulose) (HPC)): 125 and 132 % of control
- T/C (dose: 3.12 mg/kg/injection, schedule: Q01DX009 (ip), vehicle: Klucel (hydroxypropylcellulose) (HPC)): 130 and 139 % of control
- T/C [4]: 132 % of control
- T/C (dose: 3.12 mg/kg/injection, schedule: Q01DX009 (oral), vehicle: Klucel (hydroxypropylcellulose) (HPC)): 125 % of control
- T/C (dose: 6.25 mg/kg/injection, schedule: Q01DX009 (ip), vehicle: Klucel (hydroxypropylcellulose) (HPC)): 128 and 145 % of control
- T/C [5]: 126 % of control [5 of 6 alive]
- T/C (dose: 12.5 mg/kg/injection, schedule: Q01DX009 (ip), vehicle: Klucel (hydroxypropylcellulose) (HPC)): 141 % of control
- survivor count (dose: 25.0 mg/kg/injection, schedule: Q01DX009 (ip), vehicle: Klucel (hydroxypropylcellulose) (HPC)): 0 of 10 and 3 of 10
- survivor count (dose: 50.0 mg/kg/injection, schedule: Q01DX009 (oral), vehicle: Klucel (hydroxypropylcellulose) (HPC)): 10 of 10

Compound: COc1cc2c(c(Cl)c1OC)CCN(C)CC2c1ccccc1 (stereo not given)
- survivor count (dose: 240.0 mg/kg/injection, schedule: Q01DX005 (ip), vehicle: saline): 0 of 6

Compound: CCCCNC(=S)N/N=C/c1nc2ccccc2c(=O)n1-c1ccc(Br)cc1
- survivor count (dose: 400.0 mg/kg/injection, schedule: Q04DX002 (ip), vehicle: saline with Tween-80): 6 of 6

Compound: C(=C\c1ccncc1)/c1ccccc1
- survivor count (dose: 200.0 mg/kg/injection, schedule: Q01DX005 (ip), vehicle: Klucel (hydroxypropylcellulose) (HPC)): 2 of 6

Compound: COc1ccc(C(c2cc3c(cc2O)OCO3)N2CCN(C(c3cc4c(cc3O)OCO4)c3ccc(OC)cc3OC)CC2)c(OC)c1 (stereo not given)
- survivor count [2]: 6 of 6

Compound: CC1NC(=O)NC(=O)C1(Cl)Cl (stereo not given)
- survivor count [6]: 6 of 6

Compound: CC(C)CN=C(N)Nc1cccc(NC(=O)Nc2ccc(Cl)cc2)c1
- survivor count (dose: 100.0 mg/kg/injection, schedule: Q01DX009 (ip), vehicle: saline with Tween-80): 4 of 6
- survivor count (dose: 200.0 mg/kg/injection, schedule: Q01DX009 (ip), vehicle: saline with Tween-80): 0 of 6

Compound: C[C@]12C=CC(=O)C=C1CC[C@H]1[C@@H]3C[C@@H](O)[C@](O)(C(=O)CO)[C@@]3(C)C[C@H](O)[C@@]12F
- survivor count (dose: 400.0 mg/kg/injection, schedule: Q04DX003 (ip), vehicle: Klucel (hydroxypropylcellulose) (HPC)): 3 of 6

Compound: ClCCCCN(CCN(CCCCCl)c1ccccc1)c1ccccc1
- survivor count (dose: 50.0 mg/kg/injection, schedule: Q04DX002 (ip), vehicle: saline): 4 of 6
- survivor count (dose: 100.0 mg/kg/injection, schedule: Q04DX002 (ip), vehicle: saline): 0 of 5
- survivor count (dose: 200.0 mg/kg/injection, schedule: Q04DX002 (ip), vehicle: saline): 0 of 5
- survivor count (dose: 400.0 mg/kg/injection, schedule: Q04DX002 (ip), vehicle: saline): 0 of 5

Compound: CC(=O)N1CCCC1C(=O)O (stereo not given)
- survivor count (dose: 200.0 mg/kg/injection, schedule: Q04DX003 (ip), vehicle: saline): 6 of 6

Compound: CC1CCCC/C1=N\N(C)C (stereo not given)
- survivor count [3]: 1 of 6

Compound: CC(C)NCCCNc1c2ccccc2nc2cccc([N+](=O)[O-])c12
- survivor count [4]: 4 of 6
- survivor count [5]: 0 of 6
- survivor count (dose: 12.5 mg/kg/injection, schedule: Q01DX009 (ip), vehicle: saline): 0 of 6
- survivor count [6]: 0 of 6
- survivor count (dose: 100.0 mg/kg/injection, schedule: Q01DX009 (ip), vehicle: saline): 0 of 6
- survivor count [1]: 0 of 6

Compound: C#CC1(O)CC2c3ccc(OC)cc3CCC2(C)C1 (stereo not given)
- survivor count (dose: 50.0 mg/kg/injection, schedule: Q01DX009 (ip), vehicle: Klucel (hydroxypropylcellulose) (HPC)): 6 of 6
- survivor count (dose: 100.0 mg/kg/injection, schedule: Q01DX009 (ip), vehicle: Klucel (hydroxypropylcellulose) (HPC)): 6 of 6
- survivor count [7]: 6 of 6

Compound: COc1cccc(C(=O)CCN(C)C)c1
- survivor count [1]: 1 of 6

Compound: CCOC(CN1Cc2cc(OC)c(OC)cc2CC1c1ccc(OC)c(OC)c1)OCC (stereo not given)
- survivor count [3]: 6 of 6

Compound: CN(C)CC1CC1C1(C)c2ccccc2Sc2ccccc21 (stereo not given)
- survivor count [7]: 0 of 6
